In patent US20260355357A1, “DIAGNOSTIC AGENTS AND USES THEREOF” (HADASIT MEDICAL RESEARCH SERVICES AND DEVELOPMENT LTD., priority 2023, published 2026):

Test system: breast cancer tumor
Assay: Deuterium MRI of female mice bearing breast cancer tumor
Assay type: in vivo, mouse
Conditions: 0.5 g/kg intravenous, data not shown

[2H]C([2H])(O)[C@H]1OC(O)C[C@@]([2H])(O)[C@]1([2H])O (stereo partly drawn) [[D4]DDG, [3,4,6,6-D4]2-deoxy-D-glucose]
time points after administration at which visualized by deuterium MRI: 30 minutes to at least 48 hours
